Assay results: PubChem BioAssay AID2685 (National Center for Advancing Translational Sciences (NCATS), 2010)
Some of the results follow. These are further read-outs of the screen, such as a control signal, another cell line or another target. No call is given for them. Most of these compounds were active or inconclusive in the main read-out, so they are no random draw. Words in brackets tell the shape of the fitted curve; partial curves, single points and poor fits give uncertain potencies.

Experiment: qHTS Assay for Lipid Storage Modulators in Drosophila S3 Cells;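 on cell number change: cells counted by Cell Tracker Red CMTPX staining in the red channel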
Conditions: BODIPY lipid droplet fluorescence, 18-24 h; for cell number change: measured here: cell count max response, cells fed with added oleic acid
How it was run: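 Drosophila S3 cells loaded with oleic acid (400 uM, as added) and compounds at several concentrations; lipid droplets imaged by 488-nm laser-scanning cytometry, 500–530 nm intensity and object ratio to cell channel. Percent activity normalized to 20 uM Triacsin C.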

[1] = measured here: lipid fluorescence (Fed channel) AC50, cells fed with added oleic acid
[2] = measured here: cell number channel AC50, cells fed with added oleic acid

Row | Structure (SMILES) | cell number change | AC50 [1] | AC50 [2]
1 | Cc1cccc(OCc2occc2C(=O)Nc2cccc(-n3cnnn3)c2)c1 | -11.5% | 0.58 µM [falling, single point] | –
2 | O=C(CN1CCN(Cc2ccccc2F)C1=O)NCCN1CCOCC1 | 35.4% | 18.4 µM [rising, partial curve] | 14.6 µM [rising, partial curve, poor fit]
3 | CCOC(=O)C1CCCN(c2c(Nc3ccc(C)c(C)c3)c(=O)c2=O)C1 (centres undefined) | 59% | 8.2 µM [rising, partial curve] | 8.2 µM [rising, partial curve]
4 | Cc1cccc(OCC(=O)N/N=C\c2cn(C)c3ccccc23)c1 | -63% | 14.6 µM [falling, partial curve] | 20.6 µM [falling, single point]
5 | Cc1ccc(Nc2nc(N)nc(CCl)n2)c(C)c1 | -3.2% | 0.411 µM [rising, full curve, poor fit] | –
6 | CN(C)S(=O)(=O)c1ccc(C(=O)NN2C(=O)NC3(CCCCC3)C2=O)cc1 | -23.3% | – | –
7 | O=C(Nc1cccc(F)c1)C1CCN(c2nnnn2-c2ccccc2)CC1 | 13.9% | 1.46 µM [rising, full curve, poor fit] | –
8 | O=C(O)C1CCC(CNS(=O)(=O)c2ccccc2)CC1 (centres undefined) | -18.1% | 23.1 µM [falling, single point] | –
9 | Cn1nccc1C(=O)Nc1ccc2c(c1)OCO2 | 11.4% | 0.411 µM [rising, full curve] | –
10 | CCCCNC(=O)Cn1cnc2sc(C(=O)OCC)c(C)c2c1=O | -12.6% | 16.4 µM [rising, single point] | 1.3 µM [falling, partial curve]
11 | O=C(NC1CCCc2c1cnn2-c1ccccc1F)c1ccccc1N1CCOCC1 (centres undefined) | -49.2% | – | 16.4 µM [falling, single point]
12 | CC12CS(=O)(=O)CC1SC(=S)N2Cc1ccccc1 (centres undefined) | 35% | 32.6 µM [rising, single point] | 2.31 µM [rising, full curve]
13 | COc1cccc(NC(=O)c2ccc(S(=O)(=O)N(C)C)cc2)c1 | 15.7% | 0.103 µM [falling, full curve, poor fit] | 0.103 µM [falling, full curve, poor fit]
14 | COC(=O)c1sc(S(=O)(=O)N2CC(C)OC(C)C2)c(C(=O)OC)c1C (centres undefined) | 22.7% | 0.0231 µM [rising, full curve] | –
15 | CCCNC(=O)Cn1cnc2sc(C(=O)Nc3cc(OC)c(OC)c(OC)c3)c(C)c2c1=O | -11.6% | – | –
16 | CC(NC(=O)c1nn(C)c2c1CS(=O)(=O)c1ccccc1-2)c1ccccc1 (centres undefined) | 13.1% | 29.1 µM [rising, single point] | –
17 | COc1ccc(S(=O)(=O)N(C)CC(=O)NC2CCCC2)cc1Cl | 131% | 3.26 µM [rising, single point] | 13 µM [rising, partial curve]
18 | O=C(CCNS(=O)(=O)c1ccc(Cl)cc1)OCC(=O)N1CCN(C(=O)c2ccco2)CC1 | -15.5% | – | –
19 | CCC1=Nc2cc(C(=O)NCCN3CCCC3)ccc2Sc2ccccc21 | -1.91% | – | –

Look-ups from the entries so far.
Entry of CCOC(=O)C1CCCN(c2c(Nc3ccc(C)c(C)c3)c(=O)c2=O)C1 (centres undefined) under cell number change: 59%
Entry of Cc1cccc(OCC(=O)N/N=C\c2cn(C)c3ccccc23)c1 under AC50 [1]: 14.6 µM [falling, partial curve]
Entry of Cc1cccc(OCc2occc2C(=O)Nc2cccc(-n3cnnn3)c2)c1 under cell number change: -11.5%

Later entries.

Row | Structure (SMILES) | cell number change | AC50 [1] | AC50 [2]
20 | CS(=O)(=O)c1ncc(Cl)c(C(=O)Nc2ccc(N3CCOCC3)cc2)n1 | -158% | 29.1 µM [falling, single point] | 29.1 µM [falling, single point]
21 | O=C(COc1ccc(Cl)cc1)NCCSc1ccccc1 | -3.56% | 0.00461 µM [rising, full curve, poor fit] | –
22 | CCCS(=O)(=O)c1nc(S(=O)(=O)c2ccc(C)cc2)c(N2CCCC2)s1 | 11.5% | 6.51 µM [rising, single point] | –
23 | CC1CCCCC1NC(=O)c1ccco1 (centres undefined) | -1.5% | 14.6 µM [rising, partial curve] | –
24 | CCCCOc1ccc(-c2ncc(C(=O)O)c(C)n2)cc1 | -2.54% | – | –
25 | CCCCn1c(=O)[nH]c(=O)c2c1nc(-c1ccsc1)n2Cc1ccccc1 | -26.3% | 18.4 µM [falling, single point] | –
26 | COc1ccc(CCNC(=O)C2CCN(C(=O)c3ccc(C(C)(C)C)cc3)CC2)cc1 | -49.6% | – | 6.51 µM [falling, partial curve]
27 | Nc1nc2n(n1)C(c1ccccc1Cl)CC(c1ccc(F)cc1)N2 (centres undefined) | -8.39% | 0.116 µM [falling, full curve, poor fit] | –
28 | CCN(CC(=O)Nc1sc2c(c1C#N)CCC(C)C2)Cc1nc2ccccc2c(=O)[nH]1 (centres undefined) | 20.9% | 32.6 µM [rising, single point] | –
29 | Cc1cc(C)cc(Oc2nn[nH]n2)c1 | 23% | 11.6 µM [rising, partial curve] | –
30 | CSc1ccc(-c2ccco2)nn1 | -2.55% | 6.51 µM [falling, single point] | 6.51 µM [falling, single point]
31 | Cc1cc(C)n(-c2nc3c(c(=O)n(C)c(=O)n3C)n2C)n1 | 9.57% | 0.116 µM [falling, full curve, poor fit] | –
32 | Cc1ccc(OCCOC(=O)Nc2ccccc2)cc1 | 29% | – | 0.13 µM [rising, full curve, poor fit]
33 | O=C(c1sc2ccccc2c1Cl)N(Cc1ccccc1Cl)C1CCS(=O)(=O)C1 (centres undefined) | 1.15% | 0.116 µM [rising, full curve, poor fit] | –
34 | COc1ccccc1-n1cnc2cc(NS(=O)(=O)c3ccccc3)ccc21 | -19.4% | 0.651 µM [rising, partial curve] | –
35 | Cc1cc(OCc2cc(C(=O)N3CCN(CC4CC4)CC3)no2)cc(C)c1Cl | -3.07% | 29.1 µM [falling, single point] | –
36 | O=C1C=C(c2ccc3ncccc3c2)C[C@@H](c2ccc(F)cc2)C1 | -13% | – | –
37 | CC(C)C(=O)Nc1ccc(NC(=O)c2ccccn2)cn1 | -11.6% | 6.51 µM [falling, single point] | –
38 | Cn1c(C(=O)N2CCN(c3ccc([N+](=O)[O-])cc3)CC2)cc2c(=O)[nH]c3ccccc3c21 | -11.7% | – | 0.517 µM [falling, full curve, poor fit]
